Experimental data published in PubChem BioAssay (Tox21).
All entries are inconclusive by the source's own rule. Clear calls are listed elsewhere. Unless noted, the call rests on the fitted dose curve; in most records, active means well fitted curve in the direction sought with a large enough effect in the repeat runs; inconclusive means weak or mixed curves; inactive means no such curve, though single readings can be large; an effect the other way counts as inactive or inconclusive.

Amino acid sequences for entries named in this document (tags omitted).
UniProt P03372, whole entry: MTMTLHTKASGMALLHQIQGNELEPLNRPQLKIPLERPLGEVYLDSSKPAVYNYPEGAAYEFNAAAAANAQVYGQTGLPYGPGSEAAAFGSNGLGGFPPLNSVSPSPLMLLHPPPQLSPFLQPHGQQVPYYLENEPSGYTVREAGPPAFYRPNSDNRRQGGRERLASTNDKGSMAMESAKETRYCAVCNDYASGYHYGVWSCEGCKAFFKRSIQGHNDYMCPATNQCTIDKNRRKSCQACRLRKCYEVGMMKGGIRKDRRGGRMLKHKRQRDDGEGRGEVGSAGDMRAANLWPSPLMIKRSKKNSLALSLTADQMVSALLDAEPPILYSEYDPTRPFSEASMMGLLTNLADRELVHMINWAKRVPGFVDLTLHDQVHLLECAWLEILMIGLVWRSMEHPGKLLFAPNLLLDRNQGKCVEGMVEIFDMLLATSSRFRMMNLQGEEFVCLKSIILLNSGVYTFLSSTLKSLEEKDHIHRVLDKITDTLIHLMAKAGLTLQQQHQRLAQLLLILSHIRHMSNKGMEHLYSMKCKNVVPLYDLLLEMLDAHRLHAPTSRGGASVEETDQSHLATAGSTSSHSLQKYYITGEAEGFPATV
UniProt Q92731, whole entry: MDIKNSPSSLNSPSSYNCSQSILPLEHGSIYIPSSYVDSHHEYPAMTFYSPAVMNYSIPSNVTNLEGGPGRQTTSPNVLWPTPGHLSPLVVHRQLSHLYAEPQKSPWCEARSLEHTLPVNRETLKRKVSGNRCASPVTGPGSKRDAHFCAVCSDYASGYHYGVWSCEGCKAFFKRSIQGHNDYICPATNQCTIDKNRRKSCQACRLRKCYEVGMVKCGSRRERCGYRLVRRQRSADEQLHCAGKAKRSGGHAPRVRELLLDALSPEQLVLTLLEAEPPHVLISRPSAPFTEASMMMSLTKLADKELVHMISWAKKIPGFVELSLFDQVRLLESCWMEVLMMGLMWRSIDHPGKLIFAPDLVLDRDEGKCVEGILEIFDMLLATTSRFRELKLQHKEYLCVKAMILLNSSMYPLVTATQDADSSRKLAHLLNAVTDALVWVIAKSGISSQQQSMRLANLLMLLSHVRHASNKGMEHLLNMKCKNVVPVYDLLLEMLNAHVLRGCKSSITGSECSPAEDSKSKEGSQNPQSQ
UniProt P06401, whole entry: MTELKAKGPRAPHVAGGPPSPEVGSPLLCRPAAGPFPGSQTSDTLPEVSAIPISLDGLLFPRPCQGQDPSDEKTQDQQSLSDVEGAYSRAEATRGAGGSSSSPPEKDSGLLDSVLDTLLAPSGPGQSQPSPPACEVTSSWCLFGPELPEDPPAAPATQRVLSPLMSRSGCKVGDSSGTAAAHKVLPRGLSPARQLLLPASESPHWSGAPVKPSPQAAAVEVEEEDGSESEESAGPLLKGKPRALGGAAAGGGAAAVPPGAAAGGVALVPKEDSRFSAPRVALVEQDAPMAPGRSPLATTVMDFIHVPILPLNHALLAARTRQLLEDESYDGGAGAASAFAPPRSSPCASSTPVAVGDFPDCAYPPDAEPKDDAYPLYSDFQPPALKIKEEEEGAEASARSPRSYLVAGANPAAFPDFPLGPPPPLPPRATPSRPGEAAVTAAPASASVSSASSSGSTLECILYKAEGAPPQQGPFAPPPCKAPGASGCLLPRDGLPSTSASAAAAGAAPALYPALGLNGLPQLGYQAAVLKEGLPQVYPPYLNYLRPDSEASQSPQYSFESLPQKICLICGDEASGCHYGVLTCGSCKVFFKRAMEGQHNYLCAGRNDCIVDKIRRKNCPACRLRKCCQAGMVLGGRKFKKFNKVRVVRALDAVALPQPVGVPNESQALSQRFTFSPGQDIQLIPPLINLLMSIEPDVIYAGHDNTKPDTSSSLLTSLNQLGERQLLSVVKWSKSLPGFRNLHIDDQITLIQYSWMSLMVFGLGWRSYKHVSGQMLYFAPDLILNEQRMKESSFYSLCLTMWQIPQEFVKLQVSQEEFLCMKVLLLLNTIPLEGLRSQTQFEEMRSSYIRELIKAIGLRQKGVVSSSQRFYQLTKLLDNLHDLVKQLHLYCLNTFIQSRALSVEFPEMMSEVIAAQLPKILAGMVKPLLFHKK
UniProt P10635, whole entry: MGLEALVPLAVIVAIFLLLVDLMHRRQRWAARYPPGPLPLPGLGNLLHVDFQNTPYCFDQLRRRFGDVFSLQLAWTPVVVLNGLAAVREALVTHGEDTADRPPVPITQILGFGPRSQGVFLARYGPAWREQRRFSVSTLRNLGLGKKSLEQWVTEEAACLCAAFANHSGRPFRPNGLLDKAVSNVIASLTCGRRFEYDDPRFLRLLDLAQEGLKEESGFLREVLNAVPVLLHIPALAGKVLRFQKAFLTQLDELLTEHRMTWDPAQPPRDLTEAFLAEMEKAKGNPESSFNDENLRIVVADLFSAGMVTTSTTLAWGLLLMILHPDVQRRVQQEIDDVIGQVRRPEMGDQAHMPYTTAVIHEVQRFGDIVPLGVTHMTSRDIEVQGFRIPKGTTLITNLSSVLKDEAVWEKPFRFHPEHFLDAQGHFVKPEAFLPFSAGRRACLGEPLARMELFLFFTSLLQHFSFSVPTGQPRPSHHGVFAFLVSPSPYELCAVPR
UniProt P08684, whole entry: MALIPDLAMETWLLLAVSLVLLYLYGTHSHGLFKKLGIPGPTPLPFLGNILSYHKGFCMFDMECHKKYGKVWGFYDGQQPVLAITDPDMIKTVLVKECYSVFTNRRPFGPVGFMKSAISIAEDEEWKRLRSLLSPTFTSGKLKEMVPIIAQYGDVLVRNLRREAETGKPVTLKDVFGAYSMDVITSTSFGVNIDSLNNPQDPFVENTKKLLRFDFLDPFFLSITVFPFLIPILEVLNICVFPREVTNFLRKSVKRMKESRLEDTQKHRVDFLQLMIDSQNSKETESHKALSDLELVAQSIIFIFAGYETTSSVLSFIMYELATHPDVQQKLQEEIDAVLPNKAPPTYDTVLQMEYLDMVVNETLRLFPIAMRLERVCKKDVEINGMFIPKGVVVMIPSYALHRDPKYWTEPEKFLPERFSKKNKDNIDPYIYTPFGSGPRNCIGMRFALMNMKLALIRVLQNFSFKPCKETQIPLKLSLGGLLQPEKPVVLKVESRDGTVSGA
UniProt P10275, whole entry: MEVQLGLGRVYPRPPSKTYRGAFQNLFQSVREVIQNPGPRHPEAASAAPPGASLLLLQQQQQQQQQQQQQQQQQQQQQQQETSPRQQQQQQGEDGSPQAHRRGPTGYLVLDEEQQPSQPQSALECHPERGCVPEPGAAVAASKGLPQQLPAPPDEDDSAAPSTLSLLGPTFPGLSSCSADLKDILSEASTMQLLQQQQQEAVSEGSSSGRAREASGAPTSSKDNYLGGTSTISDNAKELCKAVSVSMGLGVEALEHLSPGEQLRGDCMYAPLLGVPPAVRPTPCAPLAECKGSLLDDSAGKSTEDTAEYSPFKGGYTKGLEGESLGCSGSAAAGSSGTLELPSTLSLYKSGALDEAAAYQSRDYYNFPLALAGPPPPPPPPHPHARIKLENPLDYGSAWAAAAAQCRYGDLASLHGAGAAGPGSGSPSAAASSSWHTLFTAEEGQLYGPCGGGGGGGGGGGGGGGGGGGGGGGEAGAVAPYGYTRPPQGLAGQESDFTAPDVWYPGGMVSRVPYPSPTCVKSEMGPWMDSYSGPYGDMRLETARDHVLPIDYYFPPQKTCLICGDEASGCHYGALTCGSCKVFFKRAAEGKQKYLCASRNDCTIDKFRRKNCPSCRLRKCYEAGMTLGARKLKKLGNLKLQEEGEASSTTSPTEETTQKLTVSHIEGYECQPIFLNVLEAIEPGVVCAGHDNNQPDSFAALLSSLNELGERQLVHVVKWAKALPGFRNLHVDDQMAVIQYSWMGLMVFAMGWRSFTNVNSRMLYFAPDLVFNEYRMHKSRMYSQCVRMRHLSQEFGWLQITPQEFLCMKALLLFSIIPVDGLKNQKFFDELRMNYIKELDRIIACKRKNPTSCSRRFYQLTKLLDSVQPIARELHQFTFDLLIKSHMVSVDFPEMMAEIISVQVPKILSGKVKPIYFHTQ

Legend:
[1] = qHTS assay for identifying genotoxic compounds that show differential cytotoxicity against isogenic chicken DT40 cell lines with known DNA damage response pathways - wild type cell line (AID 743012); details: DT40 wild type chicken cells viability, CellTiter-Glo, 40 h; further: potency means the concentration at half of the fitted maximal effect; nearly all actives have a fitted effect of over 60% in size
In short: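 First, wild type DT40 cells were plated at 300 per well and equilibrated about 0.5 h at 37 C/5% CO2. Next, compounds in DMSO were added and exposure lasted 40 h. Finally, CellTiter-Glo was added for 30 min at room temperature and luminescence recorded.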

[2] = target: Estrogen receptor (Homo sapiens) (UniProt P03372); assay: qHTS assay to identify small molecule antagonists of the estrogen receptor alpha (ER-alpha) signaling pathway (AID 743069; active means well fitted curve in the direction sought with a large enough effect in the signal ratio in the repeat runs, not every such curve was filed as active; inconclusive means weak or mixed curves, or effect the other way; inactive means no such curve, though single readings can be large or run the other way; the % refers to the signal ratio; further: potency means the concentration at half of the fitted maximal effect); details: HEK293 ER-alpha-UAS-bla, beta-lactamase ratio, antagonist mode
In short: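 ER-alpha-UAS-bla GripTite HEK293 line; 2% charcoal-stripped FBS overnight; plated, 4 hr 37C/5% CO2; cpd in DMSO + 17beta-estradiol, 18 hr 37C; LiveBLAzer B/G FRET substrate 2 hr RT; fluorescence intensity.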

[3] = qHTS assay to identify small molecule antagonists of the estrogen receptor alpha (ER-alpha) signaling pathway - cell viability counter screen (AID 743074; calls by dose curve;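 further: HEK293 cells carrying ER-alpha-UAS-bla reporter stimulated with 17beta-estradiol; potency means the concentration at half of the fitted maximal effect; nearly all actives have a fitted effect of over 45% in size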); details: ERalpha-bla HEK293 viability, CellTiter-Glo luminescence, 18 h
[4] = qHTS assay to identify small molecule agonists of the peroxisome proliferator-activated receptor delta (PPARd) signaling pathway - cell viability counter screen (AID 743211); details: PPARd-bla HEK293H viability, CellTiter-Glo luminescence, 17 h; further: potency means the concentration at half of the fitted maximal effect; nearly all actives have a fitted effect of over 55% in size
In short: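 Tox21 library compounds, delivered in DMSO, were incubated 17 h with PPARd-bla HEK293H cells; cytotoxicity was taken from CellTiter-Glo luminescence read 30 min after reagent addition.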

[5] = qHTS assay to identify small molecule agonists of the farnesoid-X-receptor (FXR) signaling pathway - cell viability counter screen (AID 743218); details: FXR-bla HEK293T viability, CellTiter-Glo luminescence, 16 h; further: potency means the concentration at half of the fitted maximal effect; nearly all actives have a fitted effect of over 45% in size
In short: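 Parallel cytotoxicity test: compound-treated (16 h, 37 C) HEK 293T FXR-bla reporter cells were lysed with CellTiter-Glo and luminescence recorded.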

[6] = qHTS assay to identify small molecule antagonists of the vitamin D receptor (VDR) signaling pathway - cell viability counter screen (AID 743225); details: VDR-bla HEK293T viability, CellTiter-Glo luminescence, 16 h; further: potency means the concentration at half of the fitted maximal effect; nearly all actives have a fitted effect of over 50% in size
In short: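 Same-well multiplex: following 16 h treatment of HEK 293T cells carrying a UAS-driven beta-lactamase reporter with compound and agonist (3 nM final), and a 2 h FRET substrate step, CellTiter-Glo was added and luminescence read after 30 min.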

[7] = qHTS assay to identify small molecule agonists of the RXR signaling pathway - cell viability counter screen (AID 1159529); details: RXR-alpha-bla HEK293T viability, CellTiter-Glo, 16 h; further: potency means the concentration at half of the fitted maximal effect; nearly all actives have a fitted effect of over 50% in size
In short: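 Counter screen: CellTiter-Glo luminescence. Cells: RXR-alpha-UAS-bla HEK 293T. Medium: 2% charcoal-stripped FBS. Treatment: 16 h, 37 C. Reagent incubation: 30 min, RT.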

[8] = qHTS assay to identify small molecule antagonists of the estrogen related receptor signaling pathway with the pleiotropic PPARgamma coactivator (PGC) from Tox21 10K library - cell viability counter screen (AID 1224840; active means well fitted cell-killing curve with a large enough effect in the repeat runs, not every such curve was filed as active; inconclusive means weak or mixed curves, or effect the other way; inactive means no such curve, though single readings can be large or run the other way; further: potency means the concentration at half of the fitted maximal effect; nearly all actives have a fitted effect of over 40% in size); details: PGC/ERR reporter cells viability, CellTiter-Fluor, 17.5 h
In short: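 Following seeding of 2,000 PGC/ERR cells/well and 6 hours' incubation, test compounds were delivered in DMSO. The plates then sat 17.5 hours at 37 C before a fluorogenic live-cell protease reagent (CellTiter-Fluor) was read after 30 min.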

[9] = qHTS assay to identify small molecule agonists of H2AX (AID 1224845; active means well fitted activation curve with a large enough effect in the signal ratio in the repeat runs, not every such curve was filed as active; inconclusive means weak or mixed curves; the % refers to the signal ratio; further: potency means the concentration at half of the fitted maximal effect); details: CHO-K1 phospho-H2AX Ser139 HTRF, 3 h; activation (H2AX phosphorylation): at 154 µM (top of the series)
In short: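 Phospho-H2AX Ser139 measured by HTRF (ex 320 nm; em 665 and 620 nm) after 24 hr antibody incubation. Compounds, 15 concentrations, 0.76% DMSO, were applied to CHO-K1 cells for 3hr at 37C before lysis.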

[10] = target: Estrogen receptor beta (Homo sapiens) (UniProt Q92731); assay: qHTS assay to identify small molecule agonists of the estrogen receptor beta (ER-beta) signaling pathway (AID 1259377; active means well fitted activation curve with a large enough effect in the signal ratio in the repeat runs, not every such curve was filed as active; inconclusive means weak or mixed curves, or effect the other way; the % refers to the signal ratio; further: potency means the concentration at half of the fitted maximal effect); details: ER-beta-UAS-bla HEK293T, beta-lactamase FRET ratio, 16 h; activation: at 92.4 µM (top of the series)
[11] = target: Estrogen receptor beta (Homo sapiens) (UniProt Q92731); assay: qHTS assay to identify small molecule antagonists of the estrogen receptor beta (ER-beta) signaling pathway (AID 1259378; active means well fitted inhibition curve with a large enough effect in the signal ratio in the repeat runs, not every such curve was filed as active; inconclusive means weak or mixed curves, or effect the other way; inactive means no such curve, though single readings can be large or run the other way; the % refers to the signal ratio; further: on the % scale 0 is the no-effect control and ±100 the full control effect); details: ER-beta-UAS-bla HEK293T, beta-lactamase FRET ratio, 16 h; activity, negative = inhibition: at 92.4 µM (top of the series) unless noted
In short: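 Antagonist mode: compounds added to beta-lactamase reporter HEK293T ER-beta-UAS cells stimulated with E2 (1nM final), 16 hr at 37C. LiveBLAzer B/G FRET substrate, 2 hours room temperature, fluorescence read-out.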

[12] = target: Progesterone receptor (Homo sapiens) (UniProt P06401); assay: qHTS assay to identify small molecule antagonists of the progesterone receptor (PR) signaling pathway (AID 1346795; active means well fitted inhibition curve with a large enough effect in the signal ratio in the repeat runs, not every such curve was filed as active; inconclusive means weak or mixed curves; the % refers to the signal ratio; further: on the % scale 0 is the no-effect control and ±100 the full control effect); details: PR-UAS-bla HEK293T, beta-lactamase FRET ratio, 16 h; activity change, negative = inhibition: at 92.4 µM (top of the series) unless noted
In short: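 Fluorescence intensity measured 2 hr after adding beta-lactamase FRET substrate to PR-UAS-bla HEK293T cells that had been co-treated 16 hr with compound and 1 nM R5020 (final concentration) in 2% charcoal-stripped FBS.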

[13] = qHTS assay to identify small molecule antagonists of the progesterone receptor (PR) signaling pathway - cell viability counter screen (AID 1346798); details: PR-UAS-bla HEK293T viability, CellTiter-Glo luminescence, 16 h; further: potency means the concentration at half of the fitted maximal effect; nearly all actives have a fitted effect of over 50% in size
In short: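 CellTiter-Glo luminescence; PR-UAS-bla HEK293T, 3,000 cells/well; compound + R5020, 16 hr, 37C/5% CO2; 30 min RT before read.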

[14] = qHTS assay to identify small molecule agonists of the progesterone receptor (PR) signaling pathway - cell viability counter screen (AID 1346799; calls by dose curve; further: potency means the concentration at half of the fitted maximal effect; nearly all actives have a fitted effect of over 45% in size); details: PR-UAS-bla HEK293T viability, CellTiter-Glo luminescence, 16 h
In short: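 In parallel with the beta-lactamase readout, cytotoxicity toward PR-UAS-bla HEK293T cells was measured by CellTiter-Glo luminescence following 16 hr compound incubation in 2% charcoal-stripped FBS medium.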

[15] = target: Cytochrome P450 2D6 (Homo sapiens) (UniProt P10635); assay: Cytochrome P450 Family 2 Subfamily D Member 6 (CYP2D6) small molecule antagonists: luciferase reporter qHTS assay (AID 1671196); details: P450-Glo CYP2D6 enzyme assay, luciferin luminescence, 1 h; further: potency means the concentration at half of the fitted maximal effect; nearly all actives have a fitted effect of over 50% in size
In short: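 Each well received CYP2D6 with its proluciferin substrate and chemical, sat 10 min, then got NADPH regeneration solution for 1 h at room temperature. Luminescence in RLU served as the activity measure.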

[16] = target: Cytochrome P450 3A4 (Homo sapiens) (UniProt P08684); assay: Cytochrome P450 Family 3 Subfamily A Member 4 (CYP3A4) small molecule antagonists: luciferase reporter qHTS assay (AID 1671201); details: P450-Glo CYP3A4 enzyme, luciferin luminescence, 1 h
In short: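 Relative luminescence units after 20 min with luciferin detection reagent served as read-out. Beforehand, CYP3A4 turned over a proluciferin substrate for 1 h at room temperature with NADPH regeneration, following 10 min compound preincubation.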

[17] = qHTS assay for small molecule agonists of the p53 signaling pathway (AID 651631; calls by dose curve; further: potency means the concentration at half of the fitted maximal effect; nearly all actives have a fitted effect of over 15% in size); details: HCT-116 p53RE-bla reporter, beta-lactamase FRET ratio, 16 h
In short: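 Testing took place in human colorectal HCT-116 cells with stable p53RE-driven beta-lactamase. After 16 h of compound exposure at 37 °C, a FRET substrate was added and fluorescence recorded 2 h later.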

[18] = qHTS assay to identify small molecule antagonists of the androgen receptor (AR) signaling pathway using the MDA cell line - cell viability counter screen (AID 743041; further: potency means the concentration at half of the fitted maximal effect; nearly all actives have a fitted effect of over 45% in size); details: MDA-kb2 viability, CellTiter-Fluor, 16 h, cells co-treated with R1881 androgen agonist; viability change, negative = cytotoxic: at 70.3 µM (top of the series)
In short: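 Cells were plated at 3,000 per well and left 5 h. Compounds in DMSO were then pinned in, followed by R1881. After 16 h at 37C, CellTiter-Fluor fluorescence gave viability.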

[19] = target: Androgen receptor (Homo sapiens) (UniProt P10275); assay: qHTS assay to identify small molecule antagonists of the androgen receptor (AR) signaling pathway using the MDA cell line (AID 743042; further: potency means the concentration at half of the fitted maximal effect; nearly all actives have a fitted effect of over 55% in size); details: MDA-kb2 AR-luc, MMTV luciferase, R1881 antagonist, 16 h

Nc1cc([N+](=O)[O-])cc([N+](=O)[O-])c1O
inconclusive: Potency [1] 78.7 µM | Potency [2] 56.2 µM | Potency [3] 56.2 µM | Potency [4] 25.1 µM | Potency [5] 63 µM | Potency [6] 1.12 µM | Potency [7] 25.1 µM | Potency [8] 24.9 µM | Potency [9] 51.6 µM | Potency [10] 19.8 µM | activity, negative = inhibition [11] 0.5% | activity change, negative = inhibition [12] -13.4% | Potency [13] 7.87 µM | Potency [14] 7.01 µM | Potency [15] 64.7 µM | Potency [16] 40.8 µM

CN(C)CCS
inconclusive: Potency [17] 37.6 µM | Potency [18] 33.5 µM | Potency [19] 33.5 µM
